No constants are given. Whether binding was seen depends on the method and setting. Some results given as binding are weak or reduced against the parent protein; the word gives no strength.
Key:
[1] = biological target: recombinant Cynomolgus monkey TNFα (Sino Biological, Cat. No. 90018-CNAE) (Cynomolgus monkey (Macaca fascicularis)) (UniProt P79337); experiment: L929 assay (SPR nd for this scFv)
[2] = biological target: Rhesus monkey TNFα (R&D Systems, Cat. No. 1070-RM-025/CF) (Rhesus monkey (Macaca mulatta)) (UniProt P48094); experiment: L929 assay (SPR nd for this scFv)

Chains of the proteins cited; added tags and fusions are not shown. Residues count along the entry.
UniProt P79337, residues 77-233: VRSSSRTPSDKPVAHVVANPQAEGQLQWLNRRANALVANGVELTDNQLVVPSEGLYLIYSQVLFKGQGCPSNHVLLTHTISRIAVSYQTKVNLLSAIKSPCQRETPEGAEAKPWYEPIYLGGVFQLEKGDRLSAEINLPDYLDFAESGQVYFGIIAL
UniProt P48094, residues 77-233: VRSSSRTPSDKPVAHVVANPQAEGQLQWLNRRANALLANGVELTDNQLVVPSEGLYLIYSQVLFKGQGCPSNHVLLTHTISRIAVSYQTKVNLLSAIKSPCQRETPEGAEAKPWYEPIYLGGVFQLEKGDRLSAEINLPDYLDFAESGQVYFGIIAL

B1: humanized scFv 16-22-H05-sc04 (CDR grafted light chain, structural grafted heavy chain, CDR/STR) (scFv)
scFv: MDIQMTQSPSSLSASVGDRVTITCQASQSIFSGLAWYQQKPGKAPKLLIYGASKLASGVPSRFSGSGSGTEFTLTISGLQPADFATYYCQSYYYSSSSSDGSYAFGGGTKLTVLGGGGGSGGGGSGGGGSGGGGSEVQLVESGGGLVQPGGSLRLSCKASGIDFNNYGIGWVRQAPGKGLEWITYIYPGFAITNFANSVKGRFTISSDNSKNTVYLQMNSLRAEDTAVYYCARDPVYATSSGYFDLWGQGTLVTVSS
[1]
  binding: binds
[2]
  binding: binds
